Assay results from publication doi:10.1101/2023.09.24.558918.
No constants are given. Whether binding was seen depends on the method and setting. A result given as binding can be weak or reduced; the word gives no strength. For some of these results: Sequences can lack the tags named with a protein. For some of these results: In cells and extracts the contact can be indirect. Each block holds one molecule with its values, some of them ahead of it.

What was measured:
[1] = target: T1, Piwi protein (endogenous, Drosophila) (Drosophila (endogenous in adult flies and ovaries)) (UniProt Q9VKM1); assay: co-IP
T1 sequence: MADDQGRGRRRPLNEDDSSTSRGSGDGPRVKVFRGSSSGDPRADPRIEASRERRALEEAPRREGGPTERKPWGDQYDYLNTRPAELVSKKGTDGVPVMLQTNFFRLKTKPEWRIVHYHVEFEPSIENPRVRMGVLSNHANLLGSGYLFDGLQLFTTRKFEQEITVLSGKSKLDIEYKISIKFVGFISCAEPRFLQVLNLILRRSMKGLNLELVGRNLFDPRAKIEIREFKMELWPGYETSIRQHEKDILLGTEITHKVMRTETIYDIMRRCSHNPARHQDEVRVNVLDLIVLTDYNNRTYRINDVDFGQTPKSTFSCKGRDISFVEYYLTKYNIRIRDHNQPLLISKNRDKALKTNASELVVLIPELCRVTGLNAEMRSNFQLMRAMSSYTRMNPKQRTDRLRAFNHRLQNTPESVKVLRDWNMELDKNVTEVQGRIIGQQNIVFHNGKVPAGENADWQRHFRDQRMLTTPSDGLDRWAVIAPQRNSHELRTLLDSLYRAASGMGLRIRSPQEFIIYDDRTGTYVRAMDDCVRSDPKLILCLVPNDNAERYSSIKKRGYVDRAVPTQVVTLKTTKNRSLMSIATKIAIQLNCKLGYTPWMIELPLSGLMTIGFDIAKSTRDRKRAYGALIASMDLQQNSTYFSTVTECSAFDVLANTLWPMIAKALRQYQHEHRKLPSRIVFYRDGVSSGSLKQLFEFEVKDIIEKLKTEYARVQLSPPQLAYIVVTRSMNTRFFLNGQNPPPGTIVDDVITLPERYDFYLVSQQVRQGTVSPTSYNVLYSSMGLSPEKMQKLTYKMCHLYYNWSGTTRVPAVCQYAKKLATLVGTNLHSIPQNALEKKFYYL

[2] = target: T2, Recombinant GST-Piwi (Drosophila) (UniProt Q9VKM1); assay: pull-down
T2 sequence: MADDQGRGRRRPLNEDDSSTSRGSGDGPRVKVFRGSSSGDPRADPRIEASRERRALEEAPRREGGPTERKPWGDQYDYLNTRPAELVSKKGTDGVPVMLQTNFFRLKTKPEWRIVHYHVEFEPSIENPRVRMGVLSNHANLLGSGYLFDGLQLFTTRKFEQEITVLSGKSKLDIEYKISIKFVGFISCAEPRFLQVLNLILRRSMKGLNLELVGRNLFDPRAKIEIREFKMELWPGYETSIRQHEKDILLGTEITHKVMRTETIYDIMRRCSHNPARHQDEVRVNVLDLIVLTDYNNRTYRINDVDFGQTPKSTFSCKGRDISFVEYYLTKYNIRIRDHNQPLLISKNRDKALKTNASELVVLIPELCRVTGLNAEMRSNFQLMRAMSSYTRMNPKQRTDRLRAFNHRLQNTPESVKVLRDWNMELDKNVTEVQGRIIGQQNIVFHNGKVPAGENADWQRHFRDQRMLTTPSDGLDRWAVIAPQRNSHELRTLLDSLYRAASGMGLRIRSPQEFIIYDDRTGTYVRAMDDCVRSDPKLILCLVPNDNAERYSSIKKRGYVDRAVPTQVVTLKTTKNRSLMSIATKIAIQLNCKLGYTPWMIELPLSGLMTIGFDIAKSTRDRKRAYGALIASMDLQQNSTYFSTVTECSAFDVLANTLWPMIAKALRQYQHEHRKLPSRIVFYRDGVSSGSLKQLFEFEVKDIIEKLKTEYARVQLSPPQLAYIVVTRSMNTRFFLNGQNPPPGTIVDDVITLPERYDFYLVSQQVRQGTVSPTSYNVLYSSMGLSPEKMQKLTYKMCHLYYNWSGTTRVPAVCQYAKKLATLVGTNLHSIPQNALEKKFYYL

[3] = target: FLAG-DNMT3L expressed in transgenic Drosophila; assay: co-IP
[4] = target: Recombinant 6X His-Flag-DNMT3L; assay: pull-down

binding [1]: binds
Molecule: FLAG-DNMT3L expressed in transgenic Drosophila

binding [2]: binds
Molecule: Recombinant 6X His-Flag-DNMT3L

binding [3]: binds
binding [4]: binds
B1: Piwi protein (endogenous, Drosophila) (protein, UniProt Q9VKM1 1-843)
chain: MADDQGRGRRRPLNEDDSSTSRGSGDGPRVKVFRGSSSGDPRADPRIEASRERRALEEAPRREGGPTERKPWGDQYDYLNTRPAELVSKKGTDGVPVMLQTNFFRLKTKPEWRIVHYHVEFEPSIENPRVRMGVLSNHANLLGSGYLFDGLQLFTTRKFEQEITVLSGKSKLDIEYKISIKFVGFISCAEPRFLQVLNLILRRSMKGLNLELVGRNLFDPRAKIEIREFKMELWPGYETSIRQHEKDILLGTEITHKVMRTETIYDIMRRCSHNPARHQDEVRVNVLDLIVLTDYNNRTYRINDVDFGQTPKSTFSCKGRDISFVEYYLTKYNIRIRDHNQPLLISKNRDKALKTNASELVVLIPELCRVTGLNAEMRSNFQLMRAMSSYTRMNPKQRTDRLRAFNHRLQNTPESVKVLRDWNMELDKNVTEVQGRIIGQQNIVFHNGKVPAGENADWQRHFRDQRMLTTPSDGLDRWAVIAPQRNSHELRTLLDSLYRAASGMGLRIRSPQEFIIYDDRTGTYVRAMDDCVRSDPKLILCLVPNDNAERYSSIKKRGYVDRAVPTQVVTLKTTKNRSLMSIATKIAIQLNCKLGYTPWMIELPLSGLMTIGFDIAKSTRDRKRAYGALIASMDLQQNSTYFSTVTECSAFDVLANTLWPMIAKALRQYQHEHRKLPSRIVFYRDGVSSGSLKQLFEFEVKDIIEKLKTEYARVQLSPPQLAYIVVTRSMNTRFFLNGQNPPPGTIVDDVITLPERYDFYLVSQQVRQGTVSPTSYNVLYSSMGLSPEKMQKLTYKMCHLYYNWSGTTRVPAVCQYAKKLATLVGTNLHSIPQNALEKKFYYL
